# Test results as given in US20250313537A1, “BENZ[…] AND METHODS OF USE IN TREATING CANCER” (University of Cincinnati, priority 2022, published 2025).
# What was measured:
# [1] = system: Lewis Lung Carcinoma (LLC) tumors; assay: Bilateral flank LLC tumor growth delay in C57Bl6 mice; type: in vivo, mouse; conditions: 2.5 mg/kg i.p. for seven consecutive days
# Description: For in vitro studies drug was solubilized in dimethyl sulfoxide (DMSO, 0.125%) prior to use. For mouse studies drug was solubilized in a co-solvent formulation: propylene glycol (40%); ethanol (10%); benzyl alcohol (2%); benzoic acid (2%); sodium benzoate (2%).
# For subcutaneous xenograft tumor growth delay experiments, black 6 mice (C57Bl6) were purchased (Charles River Laboratories) and housed at University of Cincinnati LAMS. Purchased mice were allowed to accommodate for a week prior to experiment. Mice were housed in pathogen-free rooms and clinical health evaluated weekly by veterinary staff of the University of Cincinnati LAMS. All animal studies were conducted in accordance with approval of a University of Cincinnati IACUC.
# LLC1 cells (a million) grown in RPMI medium were washed in cold PBS and mixed with Matrigel 25%, then injected subcutaneously into left and right flanks above the hind limbs of 6 to 8-week-old mice. When subcutaneous tumors were palpable (˜100 mm^3 in size) the following treatments groups were initiated: (1) vehicle (2) drug. In mice receiving vehicle alone, the vehicle was injected i.p for 7 days. […] Mouse tumors were measured by Vernier calipers. Tumor volume was calculated using the formula: 4/3π×(l×h2), where: l and h are radii of the tumor taken perpendicular to each other. Tumor size was measured three times a week using a caliper.
# GABAA receptors = conditions: medulloblastoma (cells and tumor tissue) and melanoma cells
# [2] = system: Lewis Lung Carcinoma cells; assay: Mitochondrial depolarization, TMRE binding by FACS; type: cell-based, mouse
smiles,measurement,setting,value
C#Cc1ccc2c(c1)C(c1ccccc1)=NCC(=O)N2C [QH-II-066],tumor control relative to vehicle mice,[1],significant tumor control
same,chloride transport,GABAA receptors,enhances chloride transport
same,TMRE binding (depolarization),"[2]; Lewis Lung Carcinoma cells, FACS, within 15 minutes of incubation",reduced TMRE binding
same,shift in electric charge distribution / depolarization of cancer cells,[2]; different/disparate cancer cell types,shift in electric charge distribution
